Entries after “also recorded” stand apart in the source; their conditions may differ. For at least one compound, name, drawing or mass did not settle the structure. Some results were stated once for a whole list of compounds, not compound by compound.
Test system: atrial flutter circuit
Assay: Canine Y-shaped lesion model of sustained stable atrial flutter; reset-response measurement of cycle length, refractory period and excitable gap during neurotransmitter infusion with or without sotalol
Assay type: in vivo, dog
Procedure: In a group of 13 open chest anaesthetised dogs, atrial flutter model was produced during baseline conditions around the tricuspid valve using a Y-shaped lesion in the intercaval area extending to the right atrial appendage. Atrial flutter was induced at the shortest effective refractory period site using fast pacing stimulation (S1S1) of 100-150 ms. This manoeuvre was repeated as much as necessary with more damage in the Y-shaped lesion model to achieve a sustained stable atrial flutter (>10 min) during the baseline conditions. In order to determine the excitable gap duration and composition during this sustained and stable atrial flutter, a diastole was scanned with a single premature extrastimulus, S1S2 (S1S2=]refractory period, flutter cycle length[) to define the atrial flutter circuit composition and duration (flutter cycle length=refractory period+excitable gap). Atrial flutter cycle length, atrial effective refractory period and duration of the excitable gap were then determined. Measures were repeated during a constant infusion into the right coronary artery of norepinephrine (15 μg/min) and acetylcholine (2 μg/min) allowing 15 min for recovery from norepinephrine effects. The effects of norepinephrine and acetylcholine at a constant plasma level of d-sotalol or d,l-sotalol (0.8 mg/kg+0.4 mg/kg/hr) were also studied in 2 different groups of chloralose anaesthetised dogs on the same electrophysiological parameters described above.
Atrial Flutter protocol: All experiments described were in accordance with institutional guidelines for animal experimentation. Fourteen mongrel dogs of either sex, weight 29-45 kg, were studied in the post-absorptive state. General anaesthesia was induced with sodium thiopental (25 mg/kg iv.) and maintained with chloralose (80 mg/kg iv. bolus supplemented by 20 mg/kg/hr maximum as needed). The dogs were intubated and ventilated (Harvard pump) with room air (10 breaths/min, tidal volume to achieve a maximum inspiratory pressure of 20 cm water) to maintain arterial pH 7.35-7.45 and PaO2>80 mm Hg. Arterial and venous cannulae were inserted in the left femoral artery and vein by direct cut down for blood pressure monitoring and drug administration, respectively. An additional venous cannulae was inserted in the right femoral vein or in the right internal jugular vein for blood sampling. Muscular relaxation was then induced with gallamine triethiodide (Flaxedil 100) 3 mg/kg intravenously. A right thoracotomy was performed via the fourth or fifth intercostal space and the pericardium was incised to provide access to the vena cava and the right atrium. […] A second line, extending from the first two-thirds of the way toward the tip of the right atrial appendage and parallel to 1-2 cm above the atrioventricular groove, was similarly incised and sewn over. Five close (2-4 mm) bipolar epicardial silver electrodes (insulated except at the tip) for stimulating and/or recording were sewn around the base of the right atrium within 1 cm of the tricuspid annulus. Three were positioned on the anterior surface and two on the posterior surface (Derakhchan K, et al., 1994). An arterial cannula was inserted in the right coronary artery for neurotransmitter infusion.
Measurement of electrophysiologic parameters: A single lead (II) surface electrocardiogram, atrial electrograms from each of the 5 bipolar electrodes, and the femoral arterial pressure were monitored and recorded using a Nihon Kohden polygraph (Model RM6008). Data were also stored on a Hewlett-Packard tape recorder. Atrial flutter was induced by burst stimulation (20-30 beats at basic cycle length <100 ms). During stable flutter (cycle length variation <10 ms), a premature stimulus was introduced at the site located on this re-entry circuit after every 20th spontaneous beat (T) in 2 ms decrements beginning at coupling intervals equal to the cycle length of this atrial tachycardia. […]

[1] = infusion alone, d,l-sotalol group, 7 animals
[2] = infusion alone, d-sotalol group, 6 animals

Compound	time to conversion of atrial flutter to non sustained atrial fibrillation and then sinus rhythm (neurotransmitter infusion)	reversal of d,l-sotalol effects on atrial flutter cycle length, effective refractory period and excitable gap duration (in the presence of d,l-sotalol)	reversal of d-sotalol effects on atrial flutter cycle length and effective refractory period duration (in the presence of d-sotalol)	reversal of d-sotalol effects on excitable gap duration (in the presence of d-sotalol)	effect on effective refractory period duration [1]	effect on excitable gap duration [1]	effect on atrial flutter cycle length [2]	effect on effective refractory period duration [2]	effect on excitable gap duration [2]	occurrence of the initiation of atrial flutter (neurotransmitter infusion, acetylcholine>>norepinephrine)
NC[C@H](O)c1ccc(O)c(O)c1 [NE, norepinephrine]	less than 2 minutes									
CC(=O)OCC[N+](C)(C)C [ACh, acetylcholine]	less than 2 minutes	completely reversed; also recorded: significantly reversed	significantly reversed	significantly reversed	significantly decreased	increased	significantly shortened	significantly shortened	significantly shortened	significantly increased

From patent publication USRE42961E1, “Use of autonomic nervous system neurotransmitters inhibition and atrial parasympathetic fibers ablation for the treatment of atrial arrhythmias and to preserve drug effects” (St. Jude Medical, Atrial Fibrillation Division, Inc., priority 2000, dated 2011)
